Assay: Radioenzymatic assay of plasma normetanephrine in supine normotensives and patients with pheochromocytoma
Design: species or system human
Settings: pheochromocytoma vs normotensives

In the case of `COc1cc(C(O)CN)ccc1O` (stereo not shown) [Normetanephrine, normetanephrine], the “Plasma normetanephrine in pheochromocytoma patients relative to normotensives” value is reported as at least 30 fold.
